From paper PMC3022576 come the findings set out here.

This assay deals with GST-MAP4K3 fusion protein (complete Drosophila CG7097 isoform B) (Drosophila melanogaster). As to the kind of experiment: pull-down; GST-MAP4K3 or GST (same amounts, 50 µl) with 10 µl of S^35-Met labelled in vitro translation, over-night at 4°C in 20 mM Tris-HCl pH 8, 150 mM NaCl, 1 mM EDTA, 0,5% NP40; 10% SDS-PAGE and autoradiography; only the target purified.

Results are given in words; binding and its absence hold for the method and conditions named. Binding seen in cells or lysates may run through a third protein.

B1: Rheb (in vitro translated) (protein, UniProt Q9VND8 1-182)
chain: MPTKERHIAMMGYRSVGKSSLCIQFVEGQFVDSYDPTIENTFTKIERVKSQDYIVKLIDTAGQDEYSIFPVQYSMDYHGYVLVYSITSQKSFEVVKIIYEKLLDVMGKKYVPVVLVGNKIDLHQERTVSTEEGKKLAESWRAAFLETSAKQNESVGDIFHQLLILIENENGNPQEKSGCLVS
modifications: radiolabeled with S^35-Met
Regarding B1, the binding entry is on record as “no binding”.
